This continues a long series; more values of the same kind are listed elsewhere.
Assay: Assay (I): Determination of Solubility (96-well plate, pH 3.0-11.0, organic solvent 0-70% w/w, UV absorption at 280 nm)
Assay type: physicochemical
Details: MeCN 25.5% w/w, Method 1
Description: Assay (I): Determination of Solubility
96-Well Plate Preparation
96-well plates containing target peptide in a solid form were prepared in one of two ways:
Method 1 (evaporation): Addition of 100 μl stock solution of said peptide at a concentration of 4-6 mg/ml to each well of a 96-well half area plate (150 μl well size). Subsequently the solvent was evaporated by applying a vacuum until the solvent was completely removed.
Method 2 (precipitation): Addition of a certain volume of a stock solution of said peptide containing to each well of a 96-well half area plate followed by the addition of a certain volume of concentrated phosphoric acid to obtain a pH of 4.6 followed by addition of a certain volume of ethanol resulting in a final ethanol concentration of 20% v/v. Subsequently the plate was stored at 4° C. for 1 h and then centrifuged at 4,000 rpm for 20 min. Finally the supernatant was removed. The concentration of the stock solution was chosen in a way that the final amount of peptide after supernatant removal was >0.4 mg per well.
In both cases the stock solution was prepared by adding de-ionized water to a certain amount of powder of said peptide followed by a stepwise addition of small amounts of a concentrated sodium hydroxide solution until said peptide was completely in solution.
To determine solubility of a target peptide at different pH and organic solvent concentrations, two different buffer systems were used in independent experiments to cover the whole range from pH 3.0 to pH 11.0. Buffer system 1 covers pH 3.0-7.5 and buffer system 2 covers pH 7.5-11.0. For each buffer system 96 different solvent compositions were premixed in the following way: • 1. A low pH buffer (adjusted to either pH 3.0 or pH 7.5) and a high pH buffer (adjusted to either pH 7.5 or pH 11.0) were mixed at 8 different ratios to obtain values between pH 3.0 and pH 7.5 or pH 7.5 and pH 11.0, respectively. The total volume after mixing was 300 μl. • 2. 12 different amounts of organic solvent were then added to these buffers to obtain organic solvent (e.g. ethanol) concentrations between 0 and 70% w/w. • 3. Water was then added to obtain a total weight of 1.0 g of solvent in each well.
After preparing the 96 different solvent systems, 100 μl of each system was transferred to the 96-well plate containing the solid form of the target peptide (prepared as described in the section “96-well plate preparation”). The plate was then stored at a given temperature (between 5° C. and 70° C.) for a given time on a rotating shaker set to 400 rpm. At regular time intervals the plate was centrifuged (4,000 rpm for 10 min) and a 10 μl sample was taken from each well. The samples were then analysed by UV absorption at 280 nm for peptide quantification. Peptide concentration results are given as UV absorption at 280 nm of the sample subtracted UV absorption at 280 nm of a well comprising 10 μl water.
The buffers used were as follows: • Buffer system 1 (for the pH range from pH 3.0-7.5)
• Buffer system 2 (for the pH ranae from pH 7.5-11.0)
Solubility of liraglutide was determined using Assay (I) described herein. Liraglutide was prepared using Method 1 (evaporation) or Method 2 (precipitation) as described in subsection “96-well plate preparation”.

- Peptide concentration after 24 h (pH 3.0, 5° C.): 0.7 mg/mL
- Peptide concentration after 5 min (pH 3.0, 70° C.): 0.6 mg/mL
- Peptide concentration after 180 min (pH 3.0, 70° C.): 0.9 mg/mL
- Peptide concentration after 5 min (pH 3.0, RT): 0.5 mg/mL
- Peptide concentration after 180 min (pH 3.0, RT): 0.4 mg/mL
- Peptide concentration after 24 h (pH 3.0, RT): 0.4 mg/mL
- Peptide concentration after 5 min (pH 3.6, 5° C.): 0.2 mg/mL
- Peptide concentration after 180 min (pH 3.6, 5° C.): 0.2 mg/mL
- Peptide concentration after 24 h (pH 3.6, 5° C.): 0.2 mg/mL
- Peptide concentration after 5 min (pH 3.6, 70° C.): 0.1 mg/mL
- Peptide concentration after 180 min (pH 3.6, 70° C.): 0.1 mg/mL
- Peptide concentration after 5 min (pH 3.6, RT): 0.2 mg/mL
- Peptide concentration after 180 min (pH 3.6, RT): 0.1 mg/mL
- Peptide concentration after 24 h (pH 3.6, RT): 0.1 mg/mL
- Peptide concentration after 5 min (pH 4.3, 5° C.): 0.3 mg/mL
- Peptide concentration after 180 min (pH 4.3, 5° C.): 0.2 mg/mL
- Peptide concentration after 24 h (pH 4.3, 5° C.): 0.1 mg/mL
- Peptide concentration after 5 min (pH 4.3, 70° C.): 0.1 mg/mL
- Peptide concentration after 180 min (pH 4.3, 70° C.): 0.1 mg/mL
- Peptide concentration after 5 min (pH 4.3, RT): 0.1 mg/mL
- Peptide concentration after 180 min (pH 4.3, RT): 0.1 mg/mL
- Peptide concentration after 24 h (pH 4.3, RT): 0.1 mg/mL
- Peptide concentration after 5 min (pH 4.9, 5° C.): 0.1 mg/mL
- Peptide concentration after 180 min (pH 4.9, 5° C.): 0.2 mg/mL
- Peptide concentration after 24 h (pH 4.9, 5° C.): 0.1 mg/mL
- Peptide concentration after 5 min (pH 4.9, 70° C.): 0.1 mg/mL
- Peptide concentration after 180 min (pH 4.9, 70° C.): 0.1 mg/mL
- Peptide concentration after 5 min (pH 4.9, RT): 0.1 mg/mL
- Peptide concentration after 180 min (pH 4.9, RT): 0.1 mg/mL
- Peptide concentration after 24 h (pH 4.9, RT): 0.0 mg/mL
- Peptide concentration after 5 min (pH 5.6, 5° C.): 0.1 mg/mL
- Peptide concentration after 180 min (pH 5.6, 5° C.): 0.1 mg/mL
- Peptide concentration after 24 h (pH 5.6, 5° C.): 0.1 mg/mL
- Peptide concentration after 5 min (pH 5.6, 70° C.): 0.2 mg/mL
- Peptide concentration after 180 min (pH 5.6, 70° C.): 0.1 mg/mL
- Peptide concentration after 5 min (pH 5.6, RT): 0.6 mg/mL
- Peptide concentration after 180 min (pH 5.6, RT): 0.2 mg/mL
- Peptide concentration after 24 h (pH 5.6, RT): 0.1 mg/mL
- Peptide concentration after 5 min (pH 6.2, 5° C.): 1.6 mg/mL
- Peptide concentration after 180 min (pH 6.2, 5° C.): 0.9 mg/mL
- Peptide concentration after 24 h (pH 6.2, 5° C.): 0.2 mg/mL
- Peptide concentration after 5 min (pH 6.2, 70° C.): 0.9 mg/mL
- Peptide concentration after 180 min (pH 6.2, 70° C.): 0.3 mg/mL
- Peptide concentration after 5 min (pH 6.2, RT): 1.0 mg/mL
- Peptide concentration after 180 min (pH 6.2, RT): 0.6 mg/mL
- Peptide concentration after 24 h (pH 6.2, RT): 0.2 mg/mL
- Peptide concentration after 5 min (pH 6.9, 5° C.): 1.3 mg/mL
- Peptide concentration after 180 min (pH 6.9, 5° C.): 3.5 mg/mL
- Peptide concentration after 24 h (pH 6.9, 5° C.): >4.0 mg/mL
Compound: CCCCCCCCCCCCCCCC(=O)N[C@@H](CCC(=O)NCCCC[C@H](NC(=O)[C@H](C)NC(=O)[C@H](C)NC(=O)[C@H](CCC(N)=O)NC(=O)CNC(=O)[C@H](CCC(=O)O)NC(=O)[C@H](CC(C)C)NC(=O)[C@H](Cc1ccc(O)cc1)NC(=O)[C@H](CO)NC(=O)[C@H](CO)NC(=O)[C@@H](NC(=O)[C@H](CC(=O)O)NC(=O)[C@H](CO)NC(=O)[C@@H](NC(=O)[C@H](Cc1ccccc1)NC(=O)[C@@H](NC(=O)CNC(=O)[C@H](CCC(=O)O)NC(=O)[C@H](C)NC(=O)[C@@H](N)Cc1cnc[nH]1)[C@@H](C)O)[C@@H](C)O)C(C)C)C(=O)N[C@@H](CCC(=O)O)C(=O)N[C@@H](Cc1ccccc1)C(=O)N[C@H](C(=O)N[C@@H](C)C(=O)N[C@@H](Cc1c[nH]c2ccccc12)C(=O)N[C@@H](CC(C)C)C(=O)N[C@H](C(=O)N[C@@H](CCCNC(=N)N)C(=O)NCC(=O)N[C@@H](CCCNC(=N)N)C(=O)NCC(=O)O)C(C)C)[C@@H](C)CC)C(=O)O [liraglutide, Arg34,Lys26-(N-epsilon-(gamma-L-glutamyl(N-alfa-hexadecanoyl)))-GLP-1(7-37)]
